Measurements reported in patent publication US20260061008A1, “METHODS OF INCREASING MESENCHYMAL STROMAL CELL BIOSYNTHESIS OF SPECIALIZED PRO-RESOLVING MEDIATORS AND METHODS OF USE” (University of Oregon, priority 2022, published 2026).
“Also recorded” adds a separate entry of the source. For at least one compound, name, drawing or mass did not settle the structure.

Tests used:
[1] = system: Human bone marrow-derived Mesenchymal Stromal Cells (MSCs); test: RvD1 ELISA of culture media from DHA-treated hMSCs; assay type: cell-based
[2] = system: hMSCs; test: Cytokine secretome analysis (Milliplex/LUMINEX) of DHA-treated hMSCs; assay type: cell-based, human; conditions: 24 hrs of DHA treatment
[3] = system: MSCs encapsulated in PEG-4MAL hydrogels; test: RvD1 ELISA of media from MSCs encapsulated in PEG-4MAL hydrogels and treated with DHA; assay type: cell-based; conditions: 160 μM DHA
Protocol: MSCs were cultured in Tissue Culture Plastic (TCP) or encapsulated in PEG-4MAL hydrogels. The 20 kDa four-arm PEG-4MAL was sourced from Laysan Bio (Item #: 4arm-PEG-20K-5g). A solution of 4% w/v PEG in a 0.5 M (pH=7) MES buffer was prepared. The two peptides, RGD (GCGYGRGDSPG; SEQ ID NO: 1) for functionalization of the gel and VPM (GCRDVPMSMRGGDRCG; SEQ ID NO: 2) for crosslinking were also dissolved in the 0.5 M MES buffer. The hydrogels were prepared using a 2:1:1:1 volume ratio of PEG: RGD: cells/PBS: VPM. The 4% PEG translates to 2 mM in the hydrogel prepared from a 5 mM PEG stock solution. Based on the concentration of maleimides per PEG molecule (8 mM maleimide in 2 mM PEG-4MAL) the RGD concentration was 0.768 mM final concentration in the gel (from a 3.84 mM stock and accounting for ˜96% purity) and the VPM concentration required to cross-link the remaining maleimides in the PEG was 3.456 mM final in the gel (17.28 mM stock). […]
MSCs were treated with 160 μM DHA in the hydrogels in three different conditions. […] Samples of cell culture media were taken incrementally over a period of five days and Resolvin D1 levels were measured via ELISA assay. In addition, samples of the cell culture medium were taken 24 hours after treatment for each group and these samples were analyzed by LCMS (Wayne State University Lipidomics core facility).

[4] = system: MSCs; test: Lipidomics LCMS of SPMs secreted from DHA-treated MSCs (TCP and PEG); assay type: cell-based; conditions: 160 μM DHA, media 24 hours after treatment

CC/C=C\C/C=C\C/C=C\C/C=C\C/C=C\C/C=C\CCC(=O)O [DHA, docosahexaenoic acid]
RvD1 biosynthesis vs untreated control hMSCs ([1]; 80 μM DHA, 24 hours, MSCs from four different donors): significantly different from untreated MSCs; also recorded: significantly higher than untreated control hMSCs | RvD1 biosynthesis and secretion by hMSCs ([1]; 60, 80, 160, or 240 μM DHA, different time points): biosynthesized and secreted RvD1 in a dose-dependent manner | Cytokine levels (including GM-CSF, GRO, IL-4) vs untreated hMSCs [2]: broadly increased | RvD1 production compared with untreated cells [3]: significantly increased RvD1 production | 17-HDHA intermediate in media from treated cells [4]: present in media from treated cells at abundant levels | Maresin2 production [4]: significant increase | D-series Resolvin production (Resolvin D1, D3, D5 and D6) ([4]; 2D and 3D culture): significant increase
